From PMC4650699 come the findings set out here.

The chains behind the UniProt entries cited, without tags or fusion partners. Where a name states a change or a piece, a line headed by the entry shows the natural chain unless it says otherwise.
UniProt P68739: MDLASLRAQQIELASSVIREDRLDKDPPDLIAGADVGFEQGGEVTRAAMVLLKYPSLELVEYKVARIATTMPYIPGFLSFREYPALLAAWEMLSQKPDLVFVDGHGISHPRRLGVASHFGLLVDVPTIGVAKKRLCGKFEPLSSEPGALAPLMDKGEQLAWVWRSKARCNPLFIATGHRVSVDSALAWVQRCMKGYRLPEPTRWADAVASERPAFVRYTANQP

Construct, isoform or probe ends are uncertain for at least one entry. At least one verdict was read from the data and is not stated in words by the source.

This data set concerns the target EcEndoV-FL (endonuclease V, wild type) (Escherichia coli) (UniProt P68739). The data set can be described thus: EMSA. The note with it: 40 mM Tris-OAc pH 8.5, 5 mM CaCl2 (or 2.5 mM EDTA), 5 mM DTT, 5% glycerol, 4 uM ssDNA/ssRNA, 4 C 30 min, 6% native PAGE at 4 C, ethidium bromide, recombinant protein, residues 1-223, single-stranded DNA.
Setting [1] is: no Ca2+, 2.5 mM EDTA, comparable band intensities.

ACGATTTGCAACTATTCGAACTCCT [ssDNA-C]: the binding result was “binds” (5 mM Ca2+, complexes I and II); “binds” under setting [1].
“CCGGGATCAAGTCCACTCACTTAGATGCAC [ssDNA-D]”: the binding result reads like this: (5 mM Ca2+, complexes I and II) “binds”; under setting [1], “binds”.
As to TTCTCCCGCAGCTGC [ssDNA-A], the binding result runs as follows: (5 mM Ca2+, complexes I and II) “binds”; under setting [1], “binds”.
Turning to GTGGTCCATATCCACGCTAG [ssDNA-B], the binding result (5 mM Ca2+, complexes I and II) is given as “binds”; the binding result under setting [1] is reported as “binds”.
